# PubChem BioAssay AID504467 (National Center for Advancing Translational Sciences (NCATS), 2011)
# Screen size: about 330,000 compounds; about 7,700 (2.3%) were called active. The inconclusive results got no clear call from the source; some entries with a clear call stand among them for comparison. The call rests on the fitted dose curve; in most records, active means well fitted inhibition curve with a large enough effect; inconclusive means small, poorly fitted or top-dose-only effect, or effect the other way; inactive means flat fitted curve, though single readings scatter. Potencies beside an inconclusive call are fits to weak or partial responses and may not hold up.
# Assay: qHTS screen for small molecules that inhibit ELG1-dependent DNA repair in human embryonic kidney (HEK293T) cells expressing luciferase-tagged ELG1; further: nearly all actives have a fitted effect of over 55% in size
# Details: HEK293T ELG1-luciferase reporter, luminescence, 16 h, DNA damage induced by 5-fluorouridine; activity change, negative = inhibition: at 46.1 µM (top of the series)
# Outline: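 Quantitative HTS, concentration-response format. 2,000 cells/well co-treated with 5-fluorouridine and compound, 16 hr in 5% CO2 at 37 °C; ONE-Glo luminescence read after 30 min.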
# On the % scale 0 is the no-effect control and ±100 the full control effect; potency means the concentration at half of the fitted maximal effect.
SMILES,Potency,"activity change, negative = inhibition"
Cc1ccc(NC(=O)CCCOc2ccccc2)cc1S(=O)(=O)N1CCOCC1,"inconclusive: 18.3 µM [inhibitor, single point]",
CC(NC(=O)CN(C)CC(=O)Nc1ccc(Cl)cc1)c1ccc(F)cc1 (configuration not stated),"inconclusive: 29.1 µM [inhibitor, single point]",
COc1ccc(-n2ncc3c(=O)n(CC(=O)Nc4ccc5c(c4)OCCO5)cnc32)cc1,"inconclusive: 18.3 µM [activator, single point]",
Cn1c(=O)c2c(nc3n2CC(COc2ccccc2)O3)n(C)c1=O (configuration not stated),"inconclusive: 9.2 µM [inhibitor, partial curve]",
Cc1cc(NC(=O)Nc2ccc(OCc3ccccc3)cc2)n(C)n1,,inactive: 4.61%
C=C[C@@H]1c2c(F)cccc2N(S(=O)(=O)c2ccc(C)cc2)[C@H](c2ccc(OC(C)=O)cc2)C1(C#N)C#N,"inconclusive: 16.4 µM [inhibitor, partial curve, poor fit]",
N#CC1=C(N)N=C(SCc2cccc3ccccc23)C(C(N)=O)C12CCCCC2 (configuration not stated),"inconclusive: 25.9 µM [inhibitor, partial curve, poor fit]",
COc1cccc(C(=O)Nc2ccc(S(=O)(=O)Nc3onc(C)c3C)cc2)c1,"inconclusive: 29.1 µM [inhibitor, single point]",
COCCCn1c(C(=O)N2CC(C)OC(C)C2)cc2c(=O)n3cccc(C)c3nc21 (configuration not stated),,inactive: 1.01%
Cc1sc2nc(C(C)C)oc(=O)c2c1C,,inactive: 1.16%
O=C(C1=NN[C@@H]2C(=O)N(c3cccc(C(F)(F)F)c3)C(=O)[C@H]12)c1ccc2ccccc2n1,"inconclusive: 14.6 µM [activator, partial curve, poor fit]",
COc1ccc(N2CCN(Cc3nc(-c4ccc(Cl)cc4Cl)no3)CC2)cc1,"inconclusive: 29.1 µM [inhibitor, single point]",
COc1ccc(N2CCN(C(=O)COC(=O)CNC(=O)c3cccc(OC(F)F)c3)CC2)cc1,,inactive: 9.36%
COCCCn1c(=O)/c(=C\c2ccc(OC(F)F)c(OC)c2)s/c1=C(/C#N)C(N)=O,"inconclusive: 25.9 µM [activator, single point]",
CC(C)C1Oc2ccccc2N(CC(=O)N(Cc2ccccn2)CC2CCCO2)C1=O (configuration not stated),,inactive: -8.69%
COCCN(C(=O)c1ccc(N2CCCC2=O)cc1)c1c(N)n(Cc2ccccc2)c(=O)[nH]c1=O,,inactive: 18.4%
CCOC(=O)Nc1ccc2c(c1)N(C(=O)CCN(C)C)c1ccccc1CC2,,inactive: 12.4%
CCC(C)[C@H](NC(=O)NCc1ccc(OC)c(OC)c1)C(=O)O (some centres not stated),"inconclusive: 2.06 µM [inhibitor, partial curve, poor fit]",
O=C1OCCN1C(=O)[C@H]1[C@H](c2ccccc2)C(c2cccc(Cl)c2)=NN1c1ccccc1,,inactive: 0.312%
C=CCn1c(SCC(=O)c2ccc(OC)cc2)nnc1-c1cc2cccc(OC)c2o1,"inconclusive: 20.6 µM [inhibitor, partial curve, poor fit]",
Cc1nn(-c2ccccn2)c2c1C(=O)C(Br)CC2 (configuration not stated),,inactive: 0.909%
CCCc1cc(C(=O)NNC(=S)NCC)c2ccccc2n1,,inactive: -1.49%
O=c1c(-c2ccc(F)cc2)coc2c3c(ccc12)OCCO3,"inconclusive: 3.66 µM [activator, partial curve]",

# Arranged by number of heavy atoms (high to low): part of the list above
SMILES,Potency,"activity change, negative = inhibition"
CC(C)C1Oc2ccccc2N(CC(=O)N(Cc2ccccn2)CC2CCCO2)C1=O (configuration not stated),,inactive: -8.69%
Cn1c(=O)c2c(nc3n2CC(COc2ccccc2)O3)n(C)c1=O (configuration not stated),"inconclusive: 9.2 µM [inhibitor, partial curve]",
Cc1nn(-c2ccccn2)c2c1C(=O)C(Br)CC2 (configuration not stated),,inactive: 0.909%

# Going on with the list:

SMILES,Potency,"activity change, negative = inhibition"
CCOC(=O)C1CCN(C(=O)C2CCN(c3nc4ccc(OC)cc4s3)CC2)CC1,,inactive: -6.65%
CCc1c(O)nc(SCC(=O)Nc2ccc(Br)cc2)n(-c2ccc(C)cc2)c1=O,"inconclusive: 18.3 µM [activator, single point]",
COc1ccc2cc(C(N)=O)/c(=N\NC(=O)c3ccccc3)oc2c1,"inconclusive: 2.31 µM [activator, partial curve]",
CCNCc1nc2cc(Cl)ccc2c(=O)[nH]1,"inconclusive: 5.17 µM [inhibitor, partial curve, poor fit]",
COC(=O)Cc1[nH]n(-c2nc3ccccc3s2)c(=O)c1C(C)=Nc1ccc(OC)cc1,"inconclusive: 4.11 µM [activator, single point]",
NC(=O)N/N=C/c1ccccc1OC(=O)c1cc2ccccc2oc1=O,"inconclusive: 18.3 µM [activator, partial curve]",
O=C(CCOc1ccccc1)Nc1ccc(S(=O)(=O)Nc2ncccn2)cc1,,inactive: 14.6%
CCOc1cccc(CNc2ccc(O)cc2)c1OCc1ccc(Cl)cc1Cl,"inconclusive: 16.4 µM [inhibitor, partial curve]",
Cc1ccc(C(=O)NCC(=O)OC(C)C(=O)NC2CCCCC2C)cc1C (configuration not stated),,inactive: 21.1%
CC(C)c1nnc(NC(=O)CCC(=O)NC2CCCCCC2)s1,"inconclusive: 23.1 µM [activator, partial curve, poor fit]",
COc1cc2[nH]c(C(=O)N3CCc4ccccc43)cc2c(OC)c1OC,"inconclusive: 8.2 µM [activator, partial curve]",
Cc1nc2sc3c(NCc4ccco4)ncnc3c2c2c1COC(C)(C)C2,active: 2.59 µM,
COC(=O)CCN(C(=O)c1cccc([N+](=O)[O-])c1)c1ccccn1,,inactive: -1.49%
CC(C)(C)c1cc(NC(=O)Nc2ccc(Cl)cc2Cl)no1,,inactive: 12.5%
Cc1ccc(OCCNC(=O)c2ccco2)cc1C,"inconclusive: 20.6 µM [activator, single point]",
O=C(Nc1ccc(N2CCCC2=O)cc1)c1cccc(F)c1,"inconclusive: 2.31 µM [activator, full curve]",
CCN(CC)S(=O)(=O)c1ccc(NS(=O)(=O)CC23CCC(CC2=O)C3(C)C)cc1 (configuration not stated),,inactive: -3.35%
COc1ccc(CNC(=O)c2ccc(S(=O)(=O)NCc3ccco3)cc2)cc1,,inactive: 13.4%
N#Cc1nc(COc2ccccc2F)oc1NCCc1ccccc1,"inconclusive: 20.6 µM [activator, partial curve]",
COC(=O)Cc1cc(=O)[nH]c(/N=C(\N)Nc2ccccc2)n1,"inconclusive: 18.4 µM [activator, partial curve, poor fit]",
CCOC(=O)c1sc(=S)n(CC)c1NC(=O)c1ccccc1,"inconclusive: 16.4 µM [inhibitor, single point]",
O=C(NCC1CCCCC1)c1cc(S(=O)(=O)N2CCCCC2)ccc1N1CCOCC1,"inconclusive: 29.1 µM [inhibitor, single point]",
O=C(NC1CCCC1)C1CC(c2ccc(F)cc2)=NO1 (configuration not stated),"inconclusive: 20.6 µM [activator, partial curve]",

SMILES,Potency,"activity change, negative = inhibition"
O=C(Nc1ccc2c(c1)OCO2)c1cc(-c2ccccc2Cl)on1,"inconclusive: 2.06 µM [activator, partial curve]",
Cc1cc(NO)nc(-c2ccc(Br)cc2)n1,"inconclusive: 11.6 µM [activator, partial curve]",
Cc1noc(/C=C/c2ccco2)c1S(=O)(=O)N1CCC(C(=O)N2CCc3ccccc32)CC1,"inconclusive: 8.2 µM [inhibitor, partial curve]",
Cc1ccc(C(=O)C(NC(=O)c2ccco2)N2CCOCC2)cc1 (configuration not stated),"inconclusive: 20.6 µM [activator, partial curve]",
CCOc1ccc(N2C(=O)Cc3ccccc3C2=O)cc1,"inconclusive: 29.1 µM [activator, single point]",
COc1ccc(C)cc1Nc1n[n+](-c2ccccc2)c(-c2ccc(SC)cc2)s1,"inconclusive: 6.51 µM [activator, partial curve, poor fit]",
C/C(=N/NC(=O)OC(C)(C)C)c1ccco1,"inconclusive: 20.6 µM [activator, partial curve]",
COc1ccc(OCc2cc(C(=O)NC(C)c3cnn(C)c3)no2)c(Cl)c1 (configuration not stated),"inconclusive: 29.1 µM [activator, single point]",
COc1ccc(/C=N/n2c(-c3ccco3)nc3ccccc3c2=O)cc1,"inconclusive: 8.2 µM [inhibitor, partial curve]",
COC(=O)[C@]1(Cc2ccccc2)N[C@H](CN(C)C(=O)c2ccccc2)[C@@H]2C(=O)N(C)C(=O)[C@@H]21,"inconclusive: 18.3 µM [activator, partial curve, poor fit]",
Cc1cc(C)nc(Nc2n[nH]c(COc3ccccc3)n2)n1,"inconclusive: 2.91 µM [activator, full curve, poor fit]",
CCCN(Cc1ccccc1)C(=S)NC(=O)c1ccccc1[N+](=O)[O-],"inconclusive: 11.6 µM [inhibitor, partial curve, poor fit]",
CC1(C)Cc2c(cnn2-c2ccc(F)cc2)C(NC(=O)CCc2ccncc2)C1 (configuration not stated),"inconclusive: 25.9 µM [activator, single point]",
CC(=O)c1cccc(Nc2cc(C)nc3c(C)cccc23)c1,,inactive: 11.4%
CN(C)c1ccc(C(=O)/C=C/c2cccnc2)cc1,"inconclusive: 2.06 µM [activator, partial curve, poor fit]",
CCCn1c(SCC(=O)c2cc(C)n(-c3ccc4c(c3)OCO4)c2C)n[nH]c1=O,"inconclusive: 5.17 µM [inhibitor, full curve]",
COc1ccc(/C=N/Nc2cc(C)nc3ccccc23)cc1,,inactive: -5.8%
Cc1ccc(/C=C2\CC(C)CC3=C2NC(=S)NC3c2ccc(C)cc2)cc1 (configuration not stated),,inactive: -0.812%
CCc1c(C)sc2nc3c(C(=O)N4CCOCC4)cc(C(=O)c4ccccc4O)cn3c(=O)c12,"inconclusive: 29.1 µM [inhibitor, single point]",
CCOC(=O)c1c(CN2CCC(C)CC2)oc2ccc(OC)cc12,,inactive: -10.2%
CCC(C)/C(C)=N/NC(=O)c1ccc(COc2ccc(Cl)c(C)c2)cc1 (configuration not stated),"inconclusive: 20.6 µM [activator, partial curve]",
